Assay results as given in the supplement of paper PMC3682954.
Where “and” joins values, the source holds several entries; their conditions need not be identical. Identical values can stand only once. Counter-ions that a name gives are not always drawn. ± gives the standard deviation of the averaged measurements. The list shows a part of the results. Many values rest on one well or one pass, so single values are uncertain.

System: RAW 264.7
Test: cell viability (MTT) relative to vehicle control; higher = more viable cells
Conditions: stimulus: HMGB1 5 ug/ml, 18 h
[1] = compound concentration: 1 ug/ml

Row | SMILES | cell viability (compound concentration: 3 uM) | cell viability [1]
1 | c1ccc(CCCN2CCN(CCOC(c3ccccc3)c3ccccc3)CC2)cc1 | 106% | –
2 | CC(C)C[C@H]1C(=O)N2CCC[C@H]2[C@]2(O)O[C@](NC(=O)[C@@H]3C=C4c5cccc6[nH]c(Br)c(c56)C[C@H]4N(C)C3)(C(C)C)C(=O)N12 | 106% | –
3 | CC(C)C[C@H]1C(=O)N2CCC[C@H]2[C@]2(O)O[C@](NC(=O)[C@@H]3C=C4c5cccc6[nH]c(Br)c(c56)C[C@H]4N(C)C3)(C(C)C)C(=O)N12 [Bromocriptine] | 119% | –
4 | CC(C)C[C@H]1C(=O)N2CCC[C@H]2[C@]2(O)O[C@](NC(=O)[C@@H]3C=C4c5cccc6[nH]c(Br)c(c56)C[C@H]4N(C)C3)(C(C)C)C(=O)N12 [Bromocryptine mesylate] | 87.5% | –
5 | CC(C)C[C@H]1C(=O)N2CCC[C@H]2[C@]2(O)O[C@](NC(=O)[C@@H]3C=C4c5cccc6[nH]c(Br)c(c56)C[C@H]4N(C)C3)(C(C)C)C(=O)N12 [(+)-Bromocriptine methanesulfonate] | 94.6% | –
6 | C=CCN1CC[C@]23c4c5ccc(O)c4O[C@H]2/C(=N/N=C2\CC[C@@]4(O)[C@H]6Cc7ccc(O)c8c7[C@@]4(CCN6CC=C)[C@H]2O8)CC[C@@]3(O)[C@H]1C5 [Naloxonazine dihydrochloride] | 99.1% | –
7 | C=CCN1CC[C@]23c4c5ccc(O)c4O[C@H]2/C(=N/N=C2\CC[C@@]4(O)[C@H]6Cc7ccc(O)c8c7[C@@]4(CCN6CC=C)[C@H]2O8)CC[C@@]3(O)[C@H]1C5 [Naloxonazine] | 103% | –
8 | COc1cc(C(O)CN)ccc1O (racemic) [(±)-Normetanephrine hydrochloride] | 109% | –
9 | C[C@]12CCC(=O)C=C1CC[C@@H]1[C@@H]2CC[C@@]2(C)[C@H]1CC[C@]2(C)O [Methyltestosterone] | 91.9% | –
10 | CN1[C@@H]2CC[C@H]1C[C@@H](OC(=O)C(CO)c1ccccc1)C2 (stereo partly specified) [Atropine sulfate monohydrate] | 112% | –
11 | CN1[C@@H]2CC[C@H]1C[C@@H](OC(=O)C(CO)c1ccccc1)C2 (stereo partly specified) [Atropine] | 119% | 92.3%
12 | CN1[C@@H]2CC[C@H]1C[C@@H](OC(=O)C(CO)c1ccccc1)C2 (stereo partly specified) [Atropine sulfate] | 107% | –
13 | CN1[C@@H]2CC[C@H]1C[C@@H](OC(=O)C(CO)c1ccccc1)C2 (stereo partly specified) | 101% | –
14 | CC(C)NCC(O)c1ccc(N)c(C#N)c1 (stereo unspecified) [Cimaterol] | 96.4% | –
15 | CNCC(O)c1ccc(O)cc1 (stereo unspecified) | 108% and 96.9% | –
16 | CCC1=C[C@H]2CN3CCc4c([nH]c5ccccc45)[C@](C(=O)OC)(C2)[C@H]13 [Catharanthine] | 103% | –
17 | O=C(Cc1ccc(Cl)c(Cl)c1)N1CCCCC1CN1CCCC1 (stereo unspecified) | 117% | –
18 | C#CCOC(=O)C1=CCCN(C)C1 [Arecaidine propargyl ester hydrobromide] | 93.8% | –
19 | NCC(CP(=O)(O)O)c1ccc(Cl)cc1 (stereo unspecified) [Phaclofen] | 108% | –
20 | c1ccc(C2CC2)c(OCC2=NCCN2)c1 [Cirazoline] | 107% | –
21 | c1ccc(C2CC2)c(OCC2=NCCN2)c1 [Cirazoline hydrochloride] | 109% | –
22 | CCCC(=O)OCC[N+](C)(C)C [Butyrylcholine] | 105% | –
23 | CN1[C@@H]2CC[C@H]1C[C@@H](OC(c1ccccc1)c1ccccc1N)C2 (stereo partly specified) [Aminobenztropine] | 97.5% | –
24 | CCOP(=S)(OCC)Oc1cc(C)nc(C(C)C)n1 | 109% | –
25 | CNC(C)(C)Cc1ccccc1 | 109% | –
26 | CNC(C)(C)Cc1ccccc1 [Mephentermine hemisulfate] | 118% | –

Row | SMILES | cell viability (compound concentration: 3 uM) | cell viability [1]
27 | C[C@]12CCC(=O)C(O)=C1CC[C@@H]1[C@@H]2CC[C@]2(C)C(=O)CC[C@@H]12 [Formestane] | 102 ± 13% | –
28 | C[C@]12CCC(=O)C(O)=C1CC[C@@H]1[C@@H]2CC[C@]2(C)C(=O)CC[C@@H]12 | 120 ± 16% | –
29 | CCN(CC)CCOC(=O)C(O)(c1ccccc1)c1ccccc1 | 97.1% | –
30 | CNC(=O)Oc1ccc2c(c1)[C@]1(C)CCN(C)[C@@H]1N2C [(-)-Physostigmine] | 109% | –
31 | CNC(=O)Oc1ccc2c(c1)[C@]1(C)CCN(C)[C@@H]1N2C [Eserine] | – | 88.2%
32 | CNC(=O)Oc1ccc2c(c1)[C@]1(C)CCN(C)[C@@H]1N2C [Physostigmine] | 98.68 ± 0.71% | –
33 | CNC(=O)Oc1ccc2c(c1)[C@]1(C)CCN(C)[C@@H]1N2C [Eserine sulfate, physostigmine sulfate] | 109% | –
34 | CNC(=O)Oc1ccc2c(c1)[C@]1(C)CCN(C)[C@@H]1N2C | 110% | –
35 | CN(C)C(=O)Oc1cccc([N+](C)(C)C)c1 [Neostigmine] | 102% | –
36 | CN(C)C(=O)Oc1cccc([N+](C)(C)C)c1 | 110% | –
37 | CN(C)C(=O)Oc1cccc([N+](C)(C)C)c1 [Neostigmine bromide] | 117 ± 5.3% | –
38 | CN1[C@H]2C[C@H](OC(=O)[C@H](CO)c3ccccc3)C[C@@H]1[C@@H](O)C2 | 110% | –
39 | COc1ccc(C(CN(C)C)C2(O)CCCCC2)cc1 (stereo unspecified) [Venlafaxine] | 107 ± 1.1% | –
40 | COc1ccc(C(CN(C)C)C2(O)CCCCC2)cc1 (stereo unspecified) [Venlafaxine hydrochloride] | 95.5% | –
41 | COc1ccc(C(CN(C)C)C2(O)CCCCC2)cc1 (stereo unspecified) | 94.4% and 111% | –
42 | CCN(CCCl)Cc1ccccc1Br [DSP-4 hydrochloride] | 102% | –
43 | CCNCC(O)c1cccc(O)c1 (stereo unspecified) [Etilefrine hydrochloride] | 94.3% | –
44 | O=c1c(O)c(-c2ccc(O)c(O)c2)oc2c(O)c(O)cc(O)c12 [Gossypetin] | – | 90.7%
45 | CN1CCc2cc3c(cc2C1O)OCO3 (stereo unspecified) [Hydrastinine hydrochloride] | 102% | 107%
46 | CN1CCc2cc3c(cc2C1O)OCO3 (stereo unspecified) | 114% | –
47 | COc1ccc2[nH]cc(C3=CCNCC3)c2c1 | 99.5% | –
48 | CC(C)(N)Cc1ccccc1 | 104% | –
49 | CC(C)(N)Cc1ccccc1 [Phentermine hydrochloride] | 102% | –
50 | CN(CC[C@H](N)CC(=O)N[C@H]1C=C[C@H](n2ccc(N)nc2=O)O[C@@H]1C(=O)O)C(=N)N | 129% | –
51 | CC(N)c1cccc(Cl)c1Cl (racemic) [(±)-2,3-Dichloro-alpha-methylbenzylamine hydrochloride] | 91.3% | –
52 | CCCCC(C#N)(Cn1cncn1)c1ccc(Cl)cc1 (stereo unspecified) [Myclobutanil] | 84.3% | –

Row | SMILES | cell viability (compound concentration: 3 uM) | cell viability [1]
53 | COc1ccc(C(=O)c2c(C)n(CCN3CCOCC3)c3ccccc23)cc1 [Pravadoline] | 99.2% | –
54 | C=CCN1CC[C@]23CCCC[C@H]2[C@H]1Cc1ccc(O)cc13 [Levallorphan tartrate] | 101% | –
55 | C=CCN1CC[C@]23CCCC[C@H]2[C@H]1Cc1ccc(O)cc13 [Levallorphan] | 104% | –
56 | CC(=O)Nc1cc([As](=O)(O)O)ccc1O | 98.4 ± 4.8% | –
57 | Cc1cc2c(C(C)C)c(O)c(O)c(C=O)c2c(O)c1-c1c(C)cc2c(C(C)C)c(O)c(O)c(C=O)c2c1O [Gossypol] | 88% | –
58 | Cc1cc2c(C(C)C)c(O)c(O)c(C=O)c2c(O)c1-c1c(C)cc2c(C(C)C)c(O)c(O)c(C=O)c2c1O | 112% | 111%
59 | CCCN1CC[C@@H]2c3cc(O)ccc3CC[C@@H]21 (racemic) [cis(+/-)-8-OH-PBZI hydrobromide] | 99.3% | –
60 | O=c1[nH]c2ccccc2n1C1CCN(CCCC(c2ccc(F)cc2)c2ccc(F)cc2)CC1 | 105% | –
61 | O=c1[nH]c2ccccc2n1C1CCN(CCCC(c2ccc(F)cc2)c2ccc(F)cc2)CC1 [Pimozide] | 106 ± 3.5% | –
62 | CC(=O)[O][Hg][c]1ccccc1 | 9.91 ± 9.9% | –
63 | CC(=O)NCCc1c[nH]c2ccccc12 [N-Acetyltryptamine] | 113% | –
64 | c1cc2c(cc1[C@H]1OC[C@H]3[C@@H]1CO[C@H]3c1ccc3c(c1)OCO3)OCO2 [(-)-Asarinin] | – | 83.1%
65 | C[C@]12CC[C@@H](O)C[C@H]1CC[C@@H]1[C@@H]2CC[C@]2(C)C(=O)CC[C@@H]12 [3-alpha-Hydroxy-5-beta-androstan-17-one] | 114% | –
66 | C#CCN(C)[C@H](C)Cc1ccccc1 [Selegiline hydrochloride] | 86.2% | –
67 | C#CCN(C)[C@H](C)Cc1ccccc1 [Benzeneethanamine, N,Alpha-dimethyl-N-2-propynyl-(R)- [CAS]] | 97.2% | –
68 | C#CCN(C)[C@H](C)Cc1ccccc1 | 97.4% | –
69 | C=C[C@H]1CN2CC[C@H]1C[C@H]2c1[nH]c2ccccc2c1CCO [Cinchonamine] | – | 91.5%
70 | C[C@@H]1O[C@@H](O[C@@H]2C=C3CC[C@@H]4[C@H](CC[C@]5(C)[C@@H](c6ccc(=O)oc6)CC[C@]45O)[C@@]3(C)CC2)[C@H](O)[C@H](O)[C@H]1O [Proscillaridin A] | 88.6% | –
71 | C[C@@H]1O[C@@H](O[C@@H]2C=C3CC[C@@H]4[C@H](CC[C@]5(C)[C@@H](c6ccc(=O)oc6)CC[C@]45O)[C@@]3(C)CC2)[C@H](O)[C@H](O)[C@H]1O [proscillaridin A] | – | 104%
72 | C[C@@H]1O[C@@H](O[C@@H]2C=C3CC[C@@H]4[C@H](CC[C@]5(C)[C@@H](c6ccc(=O)oc6)CC[C@]45O)[C@@]3(C)CC2)[C@H](O)[C@H](O)[C@H]1O | 114% | –
73 | O=C(c1ccccc1)N1CC2CC(C1)c1cccc(=O)n1C2 (stereo unspecified) | – | 93.9%
74 | CN(C)C(=O)Oc1ccc[n+](C)c1 | 109% | –
75 | CN(C)C(=O)Oc1ccc[n+](C)c1 [Pyridostigmine bromide] | 103% | –
76 | NCCCNCCSP(=O)(O)O [Amifostine] | 106 ± 7.1% | –
77 | NCCCNCCSP(=O)(O)O | 106% | –
78 | CC1OC(OC2/C=C/C=C/C=C/C=C/CC/C=C/C=C/[C@H](C)[C@@H](O)[C@@H](C)[C@H](C)OC(=O)CC(O)CC(O)CC(O)CCC(O)C(O)C[C@]3(O)CC(O)C(C(=O)O)C(C2)O3)C(O)C(N)C1O (stereo partly specified) [Nystatine] | 101% | –
